Experimental data published in article doi:10.1101/2022.10.07.511216.
No constants are given. Whether binding was seen depends on the method and setting. Binding seen in cells or lysates may run through a third protein. Some binding calls cover weakened binding; strength is not graded here. For some assays here: Sequences can lack the tags named with a protein.

The chains behind the UniProt entries cited, without tags or fusion partners.
UniProt Q8N697: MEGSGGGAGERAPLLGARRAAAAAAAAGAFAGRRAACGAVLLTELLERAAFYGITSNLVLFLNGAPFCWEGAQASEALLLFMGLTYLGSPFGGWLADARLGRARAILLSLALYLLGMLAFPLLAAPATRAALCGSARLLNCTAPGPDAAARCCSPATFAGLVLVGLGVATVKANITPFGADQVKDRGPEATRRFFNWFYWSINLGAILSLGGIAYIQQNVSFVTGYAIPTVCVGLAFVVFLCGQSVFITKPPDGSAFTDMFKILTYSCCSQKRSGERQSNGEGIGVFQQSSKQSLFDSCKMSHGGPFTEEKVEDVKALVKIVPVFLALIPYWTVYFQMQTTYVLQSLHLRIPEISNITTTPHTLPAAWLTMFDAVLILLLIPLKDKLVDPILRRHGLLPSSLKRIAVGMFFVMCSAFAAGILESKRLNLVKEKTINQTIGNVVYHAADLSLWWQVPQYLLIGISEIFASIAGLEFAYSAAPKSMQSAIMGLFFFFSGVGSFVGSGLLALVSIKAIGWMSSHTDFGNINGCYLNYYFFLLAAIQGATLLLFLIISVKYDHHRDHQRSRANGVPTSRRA

T1: FLAG-TASL (transiently overexpressed in HEK293T cells) (UniProt Q9HAI6)
T1 sequence: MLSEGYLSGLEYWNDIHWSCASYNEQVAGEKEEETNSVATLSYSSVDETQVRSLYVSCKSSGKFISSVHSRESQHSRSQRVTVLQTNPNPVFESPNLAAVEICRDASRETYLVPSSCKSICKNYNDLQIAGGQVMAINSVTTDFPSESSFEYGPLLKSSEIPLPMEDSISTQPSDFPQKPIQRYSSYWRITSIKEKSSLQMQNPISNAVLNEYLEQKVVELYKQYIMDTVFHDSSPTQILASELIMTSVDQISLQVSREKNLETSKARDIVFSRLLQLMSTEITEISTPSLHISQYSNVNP


Experiments:
[1] = target: T1, FLAG-TASL (transiently overexpressed in HEK293T cells); assay: co-IP
[2] = target: HA-SLC15A4 (HA-tagged SLC15A4 stably overexpressed in CAL-1 cells) (human) (UniProt Q8N697); assay: co-IP

binding [1]	binding [2]	Molecule
binds	–	HA-SLC15A4 (transiently overexpressed in HEK293T cells) (from UniProt Q8N697 1-577)
–	binds	endogenous TASL (protein, UniProt Q9HAI6 1-301) MLSEGYLSGLEYWNDIHWSCASYNEQVAGEKEEETNSVATLSYSSVDETQVRSLYVSCKSSGKFISSVHSRESQHSRSQRVTVLQTNPNPVFESPNLAAVEICRDASRETYLVPSSCKSICKNYNDLQIAGGQVMAINSVTTDFPSESSFEYGPLLKSSEIPLPMEDSISTQPSDFPQKPIQRYSSYWRITSIKEKSSLQMQNPISNAVLNEYLEQKVVELYKQYIMDTVFHDSSPTQILASELIMTSVDQISLQVSREKNLETSKARDIVFSRLLQLMSTEITEISTPSLHISQYSNVNP
